Experimental data as given in patent CN116963747A.
These are yes or no findings as the source states them, for the method shown. Binding seen in cells or lysates may run through a third protein. Some entries that bind do so weakly or less than the wild type. For some assays here: Tags and fused reporters may be left off the sequences shown.

The chains behind the UniProt entries cited, without tags or fusion partners. Where a name states a change or a piece, a line headed by the entry shows the natural chain unless it says otherwise. Residues count along the entry.
UniProt P29350: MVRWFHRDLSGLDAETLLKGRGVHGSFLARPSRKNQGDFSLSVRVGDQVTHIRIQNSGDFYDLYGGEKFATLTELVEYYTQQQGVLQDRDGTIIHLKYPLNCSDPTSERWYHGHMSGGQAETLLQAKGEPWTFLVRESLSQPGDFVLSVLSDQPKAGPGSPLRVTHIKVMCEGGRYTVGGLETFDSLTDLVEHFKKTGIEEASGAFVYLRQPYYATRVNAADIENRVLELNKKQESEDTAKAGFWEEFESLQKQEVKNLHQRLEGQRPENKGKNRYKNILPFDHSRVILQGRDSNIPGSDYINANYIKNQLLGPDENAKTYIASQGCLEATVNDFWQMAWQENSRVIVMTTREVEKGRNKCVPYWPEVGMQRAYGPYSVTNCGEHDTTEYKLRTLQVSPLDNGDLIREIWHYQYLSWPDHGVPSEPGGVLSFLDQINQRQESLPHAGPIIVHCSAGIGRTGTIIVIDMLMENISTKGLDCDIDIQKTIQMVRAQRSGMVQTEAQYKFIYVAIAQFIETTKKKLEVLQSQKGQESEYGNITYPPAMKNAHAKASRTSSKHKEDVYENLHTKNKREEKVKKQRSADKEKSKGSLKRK
UniProt O75022, residues 465-631: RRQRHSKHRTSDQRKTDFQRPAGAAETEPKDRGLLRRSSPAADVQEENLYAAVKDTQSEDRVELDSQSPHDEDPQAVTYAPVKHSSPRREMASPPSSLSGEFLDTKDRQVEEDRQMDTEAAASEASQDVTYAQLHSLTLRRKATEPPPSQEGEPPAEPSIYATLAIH
UniProt P78310: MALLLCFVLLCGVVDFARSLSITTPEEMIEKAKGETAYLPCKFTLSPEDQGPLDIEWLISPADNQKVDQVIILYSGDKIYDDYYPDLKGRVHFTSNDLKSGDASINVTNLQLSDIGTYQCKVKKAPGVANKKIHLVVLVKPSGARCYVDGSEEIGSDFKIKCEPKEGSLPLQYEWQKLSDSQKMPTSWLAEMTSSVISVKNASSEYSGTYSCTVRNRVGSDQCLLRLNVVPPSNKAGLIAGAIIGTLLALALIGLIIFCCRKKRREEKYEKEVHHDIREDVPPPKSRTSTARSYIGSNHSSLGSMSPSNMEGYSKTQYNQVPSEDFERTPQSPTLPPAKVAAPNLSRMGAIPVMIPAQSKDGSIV

Key:
[1] = target: T1, 经纯化的GST-TRAF2 (MyBioSource, MBS515700) (UniProt Q12933); assay: in vitro pull-down: purified GST-TRAF2 with B3ICDhFc on Dynabeads protein A
T1 sequence (looked up): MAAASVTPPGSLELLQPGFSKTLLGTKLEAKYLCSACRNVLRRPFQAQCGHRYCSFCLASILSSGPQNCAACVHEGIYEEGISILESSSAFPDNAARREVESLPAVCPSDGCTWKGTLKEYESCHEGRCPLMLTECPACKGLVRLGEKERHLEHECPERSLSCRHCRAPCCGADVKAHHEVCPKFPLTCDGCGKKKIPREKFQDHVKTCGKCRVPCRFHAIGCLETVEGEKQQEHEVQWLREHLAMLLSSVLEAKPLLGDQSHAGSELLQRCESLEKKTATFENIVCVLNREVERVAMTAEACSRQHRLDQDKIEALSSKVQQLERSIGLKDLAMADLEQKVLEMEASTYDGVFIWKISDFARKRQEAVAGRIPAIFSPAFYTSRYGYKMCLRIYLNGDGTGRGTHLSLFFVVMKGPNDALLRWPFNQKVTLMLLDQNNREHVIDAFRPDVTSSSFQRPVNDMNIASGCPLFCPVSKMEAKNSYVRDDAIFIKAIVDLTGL

[2] = target: T1, 经纯化的GST-TRAF2 (MyBioSource, MBS515700); assay: in vitro pull-down: purified GST-TRAF2 with purified B3ICDhFc
TRAF2 (human) = target: T2, TRAF2 (human) (UniProt Q12933); assay: co-IP of SHP-1 or SHP-2 with TRAF2 and CARECD-B3ICDhFc in 293T cells
T2 sequence (looked up): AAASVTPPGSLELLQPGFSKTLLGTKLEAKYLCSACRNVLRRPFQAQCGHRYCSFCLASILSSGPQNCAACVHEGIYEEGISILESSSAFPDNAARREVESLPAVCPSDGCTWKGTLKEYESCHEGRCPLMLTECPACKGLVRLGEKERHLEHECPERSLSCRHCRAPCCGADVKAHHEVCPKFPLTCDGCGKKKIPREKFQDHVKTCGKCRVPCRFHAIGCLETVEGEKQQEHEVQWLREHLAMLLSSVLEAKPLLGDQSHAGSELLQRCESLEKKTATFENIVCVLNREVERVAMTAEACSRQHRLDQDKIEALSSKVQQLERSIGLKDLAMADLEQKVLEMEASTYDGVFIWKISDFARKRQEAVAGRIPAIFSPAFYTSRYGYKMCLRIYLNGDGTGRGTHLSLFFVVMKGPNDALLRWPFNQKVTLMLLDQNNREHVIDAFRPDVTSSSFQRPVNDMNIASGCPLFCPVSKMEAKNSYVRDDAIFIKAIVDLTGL

SHP-1 [3] = target: SHP-1 (UniProt P29350); assay: co-IP of SHP-1 with TRAF2 and CARECD-B3ICDhFc in 293T cells, with or without Lyn
SHP-1 [4] = target: SHP-1 (UniProt P29350); assay: co-IP of exogenous SHP-1 with CARECD-B3ICDhFc, with Lyn, in 293T cells

Substance | binding [1] | binding [2] | binding (TRAF2 (human)) | binding (SHP-1 [3]) | binding (SHP-1 [4])
B3ICDhFc (LILRB3胞内结构域, C末端与hFc融合) (from UniProt O75022 465-631) (Fc fusion) | binds | binds | – | – | –
CARECD-B3ICD-hFc (from UniProt P78310 20-237; O75022 444-631) (Fc fusion) | – | – | binds | binds | binds
